These are yes or no findings as the source states them, for the method shown. Some results given as binding are weak or reduced against the parent protein; the word gives no strength. For part of these data: Tags and fused reporters may be left off the sequences shown.
How the values were obtained:
[1] = biological target: T1, IL-13Rα1 (UniProt P78552); assay: BIACORE; complex formed in solution
T1 sequence (looked up): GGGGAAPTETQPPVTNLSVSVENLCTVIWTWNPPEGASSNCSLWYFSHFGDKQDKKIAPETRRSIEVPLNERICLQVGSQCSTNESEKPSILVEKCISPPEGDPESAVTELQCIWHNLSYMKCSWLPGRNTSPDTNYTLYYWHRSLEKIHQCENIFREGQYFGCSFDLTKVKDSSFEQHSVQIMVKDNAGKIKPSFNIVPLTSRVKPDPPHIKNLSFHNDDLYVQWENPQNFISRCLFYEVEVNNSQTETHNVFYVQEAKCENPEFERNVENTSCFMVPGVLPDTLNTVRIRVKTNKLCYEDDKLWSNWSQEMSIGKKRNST

By UniProt entry, the sequences of proteins in these tests, tags left out. Where a name states a change or a piece, a line headed by the entry shows the natural chain unless it says otherwise.
UniProt P35225: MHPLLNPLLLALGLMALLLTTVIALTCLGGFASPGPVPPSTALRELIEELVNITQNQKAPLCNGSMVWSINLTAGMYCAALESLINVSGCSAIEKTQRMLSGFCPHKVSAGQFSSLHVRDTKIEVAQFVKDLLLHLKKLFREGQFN

[2] = biological target: T2, IL-13Rα1 monomer (UniProt P78552); assay: BIACORE; IL-13Rα1 monomer immobilized
T2 sequence (looked up): T1 sequence (looked up)

[3] = biological target: T3, IL-13Rα1-Fc (UniProt P78552); assay: BIACORE; IL-13Rα1-Fc immobilized
T3 sequence (looked up): T1 sequence (looked up)

Measured: binding

recombinant human IL-13 (from UniProt P35225 34-146) (ligand)
binds: [1] | [2] | [3]
